Source: PubChem BioAssay AID493014 (National Center for Advancing Translational Sciences (NCATS), 2011)
Hit rate of the full screen: of about 340,000 compounds, about 170 (0.05%) were called active. Inconclusive results, whose numbers are uncertain, are shown with a selection of clear calls. The call rests on the fitted dose curve; in most records, active means well fitted inhibition curve with a large enough effect in the signal ratio, with a control signal flat (not every such curve was filed as active); inconclusive means small, poorly fitted or top-dose-only effect, or effect the other way, or a change in a side signal; inactive means flat fitted curve, though single readings scatter; the % refers to the signal ratio. Where the call is inconclusive, the potency comes from a doubtful curve fit.

Assay: qHTS Assay to Find Inhibitors of Chronic Active B-Cell Receptor Signaling;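 on activity change, negative = inhibition: plate controls were basal doxycycline-induced cells for no effect and cells given 10 µM MG132 for full effect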
Settings: ABC-DLBCL IkBa-CBG/CBR reporter, luminescence ratio (green luciferase fused to IkBa over red control in TMD8 lymphoma cells), 4 h; activity change, negative = inhibition: at 46.1 µM (top of the series)
Method in brief: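 Concentration-response series (up to 46 uM) were applied to TMD8 dual-reporter cells for 4 h at 37C with doxycycline. Green/red ratio, after filter-overlap correction, defined %Activity; red signal alone was normalised to basal cells and zero luminescence.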
Potency means the concentration at half of the fitted maximal effect.

Compound | activity change, negative = inhibition | Potency
COc1ccc(C(=O)NCCN2CCCC2)cc1 | inconclusive: 4.28% | –
O=C(Nc1ccc(O)c2c(=O)cc(-c3ccccc3Cl)oc12)c1ccc(F)cc1 | inactive: 0.8% | –
O=C(c1ccccc1)c1ccc2c(c1)OCCOCCOCCOCCO2 | inconclusive: 5.43% | –
CN(CC(=O)NCc1ccc2c(c1)OCO2)S(=O)(=O)c1ccc(Br)s1 | inconclusive: -5.11% | –
CC(C)CNC(=O)c1ccc(C2SCC(=O)N2Cc2ccccc2)cc1 (stereo not drawn) | inconclusive: 7.98% | –
COc1ccc(N2CC(C(=O)N/N=C/c3ccc(C)cc3)CC2=O)cc1 (stereo not drawn) | inconclusive: -11.3% | –
O=C1CCN(CCc2ccccc2)CCN1[C@H](COc1ccccc1)c1ccccc1 | inconclusive: 3.68% | –
O=C(COC(=O)/C=C/c1ccc2ccccc2n1)NNC(=O)c1ccc([N+](=O)[O-])cc1 | inconclusive: -14.6% | –
Cc1ccc(NC(=O)Cn2nnc(-c3ccccc3-n3cnnn3)n2)c(C)c1 | inconclusive: 0.674% | –
CCCC(=O)N(CCN1CCOCC1)c1nc2c(C)ccc(C)c2s1 | inactive: -3.69% | –
Cc1ccc2cccc(NC3OC(=O)c4ccccc43)c2n1 (stereo not drawn) | inconclusive: -0.882% | –
CCOc1ccccc1NC(=O)C1COc2ccccc2O1 (stereo not drawn) | inactive: 13% | –
Cc1ccc(C(=O)N/N=C\c2cccnc2)s1 | – | inconclusive: 17.8 µM [falling, partial curve, poor fit]
COc1ccc2c(-c3ccccc3)cc3nnnn3c2c1 | inconclusive: -3.46% | –
c1ccc(-c2oc3ncnc(NCCN4CCOCC4)c3c2-c2ccccc2)cc1 | – | inconclusive: 20.6 µM [falling, partial curve]
CCOC(=O)CCSc1cc(C)c2ccccc2n1 | – | inconclusive: 12.6 µM [rising, partial curve, poor fit]
COc1ccc(NC(=O)C2(c3ccccc3)CCCC2)cc1 | inconclusive: 23.9% | –
c1ccc(-c2cc3ccccc3cn2)cc1 | inconclusive: 0.358% | –
Cc1ccccc1C(=O)N1CCc2cc(-c3csc(NC(=O)CN4CCCC4)n3)ccc21 | – | inconclusive: 35.5 µM [falling, single point]
C/C(=N\NC(=O)c1ccc(O)cc1)c1ccc2c(c1)Nc1ccccc1S2 | – | inconclusive: 23.1 µM [falling, single point]
O=C(Nc1ccc(-c2nc3ccccc3[nH]2)cc1)C1CCCO1 (stereo not drawn) | – | inconclusive: 16.4 µM [falling, single point]
Cc1ccc2nc(-c3ccccc3C)oc(=O)c2c1 | – | inconclusive: 10 µM [falling, partial curve, poor fit]
O=C(CCCc1ccccc1)N1CCc2ccccc21 | – | inconclusive: 18.4 µM [falling, single point]
CC(C)NC(=O)c1ccc(C2SCC(=O)N2Cc2ccccc2)cc1 (stereo not drawn) | inactive: -0.921% | –
O=C1NC(=S)N/C1=C\c1ccc(Oc2ccc(C(F)(F)F)cc2[N+](=O)[O-])c(Cl)c1 | inconclusive: -94.2% | –
O=C(Nc1ccccc1Cl)c1ccccc1Cc1ccccc1 | inconclusive: 7.94% | –
COC(=O)c1ccc(NC(=O)c2cc(-c3ccncc3)nc3ccccc23)cc1 | inactive: -14.8% | –

Entries from the list above containing a thiophene ring, fused or not, in the order listed:
Compound | activity change, negative = inhibition | Potency
CN(CC(=O)NCc1ccc2c(c1)OCO2)S(=O)(=O)c1ccc(Br)s1 | inconclusive: -5.11% | –
Cc1ccc(C(=O)N/N=C\c2cccnc2)s1 | – | inconclusive: 17.8 µM [falling, partial curve, poor fit]

Next structures

Compound | activity change, negative = inhibition | Potency
Cc1ccc([N+](=O)[O-])cc1-c1ccc(/C=C(\C#N)c2[nH]nc(N)c2C#N)o1 | inconclusive: 9.14% | –
Oc1cccc(NC(=S)Nc2ccccc2)c1 | inconclusive: 5.6% | –
O=C(NCc1cccs1)C1CCC(CNS(=O)(=O)c2ccccc2)CC1 (stereo not drawn) | inactive: -0.192% | –
CCOc1cc(C2NC(=O)N(C)C(C)=C2C(=O)OC)cc(Br)c1O (stereo not drawn) | inconclusive: -1.91% | –
COc1cccc(-c2n[nH]c(=S)n2Cc2ccco2)c1 | inactive: -7.29% | –
CC(C)C[C@H](NC(=O)C1CC(=O)N(c2ccc(F)cc2)C1)C(=O)N1CCCCC1 (stereo partly drawn) | inactive: 5% | –
CC(C)(O)C#Cc1ccc(C(=O)NCc2ccccc2F)cc1 | inconclusive: 0.54% | –
COc1cc(OC)cc(C(=O)NCC(=O)N2CC=C(c3ccccc3)CC2)c1 | – | inconclusive: 8.2 µM [falling, partial curve]
Cc1c(CCOC(=O)c2ccc(N3CCOCC3)c([N+](=O)[O-])c2)sc[n+]1CC#N | – | inconclusive: 35.5 µM [falling, single point]
Cn1c(=O)c2c(nc(Oc3ccccc3)n2C)n(C)c1=O | inconclusive: 31.6% | –
CCOc1ccc2nc(NC(=O)Cc3cccs3)sc2c1 | – | inconclusive: 25.9 µM [falling, partial curve, poor fit]
OC(CN1CCOCC1)CN1CCOCC1 | inactive: 0.933% | –
O=C(NC1CCN(C(=S)NCCc2ccccc2)CC1)C1CC1 | inconclusive: 13.3% | –
COC(=O)c1c[nH]n2c(=O)c(Cc3ccc(F)cc3Cl)c(C)nc12 | inconclusive: 13.4% | –
Cc1ccc(SCC(=O)Nc2ccc(S(=O)(=O)Nc3nccs3)cc2)cc1 | inactive: -3.41% | –
CCc1c(C)sc(NC(=O)c2cc(C(C)C)on2)c1C#N | inconclusive: 1.17% | –
Cc1ccc(CNC(=O)c2ccc(CS(=O)(=O)Cc3ccc(F)cc3)o2)cc1 | inconclusive: 6.22% | –
COc1cc2c(c(OC)c1OC)-c1c(cc3c(c1O)OCO3)C[C@@H](C)[C@@H](C)C2 | inactive: 0.697% | –
O=S(=O)(c1ccc(Cl)cc1)n1ccc(-c2cccc(OCc3c(F)cccc3Cl)c2)n1 | – | inconclusive: 6.31 µM [rising, partial curve, poor fit]
O=S(=O)(NNC(=S)NCC1CCCO1)c1cc(Cl)ccc1Cl (stereo not drawn) | inactive: 3.86% | –
CC1(C)S[C@@H]2[C@H](NC(=O)[C@H](N)c3ccc(O)cc3)C(=O)N2[C@H]1C(=O)O | inconclusive: 0.455% | –
Cc1cc(NC(=O)c2c(Cl)cccc2Cl)no1 | inconclusive: -2.49% | –
CC(C)CC1(C)NC(=O)N(Cc2cc([N+](=O)[O-])cc3c2OCOC3)C1=O (stereo not drawn) | inconclusive: 8.51% | –
COC(=O)C1=C(C)NC(C)=C(C(=O)OC)C1c1ccc(N(C)C)cc1 | – | active: 20.6 µM
CCOC(=O)C1(Cc2ccccc2)CCN(Cc2ccon2)CC1 | inactive: 1.84% | –
N#CSCC(=O)c1cccc2ccccc12 | – | inconclusive: 29.1 µM [falling, single point]
